# Reference: patent US20120045437A1 (BOARD OF REGENTS OF THE UNIVERSITY OF OKLAHOMA, published 2012)
# Results are given in words; binding and its absence hold for the method and conditions named. Binding calls can cover weak binding; strength is not graded here.
# B1: Anti-LRP6-1 (antibody, mouse IgG2, V domains shown)
# VH: EVQLVESGGGLVQSKGSLKLSCAASGFTFNTYAMNWVRQAPGKGLEWVGRIRSKYNNYVTYYGDSVKDRFTISRDDSQSMLYLQMNNLKTEDTAMYYCVRQGRGSYAMDYWGQGTSVTVSS
# VL: NIVMTQSPKSMSMSVGERVTLSCKASENVGTYVSWYQQKPEQSPKLLIYGASNRYTGVPDRFIGSGSATDFTLTIRSVQAEDLADYHCGQSYSYPTFGAGTKLELKR
# notes: also called mAb2F1; 2F1
# Biological target: endogenous bovine LRP6 (bovine)
# Assay: Western blot, total cell lysates
binder,measurement,value
B1,binding,binds
